Assay results as given in patent publication US6117840A (Cytel Corporation, priority 1997, dated 2000).

Experiment: Fmoc solid-phase peptide synthesis; Rink amide MBHA resin; DIC/HOBt
Conditions: whole synthesis, scale 5 mmoles

Q: For “PEPTIDE1{[PhAc].L.D.F.[dP].[am]}$$$$V2.0”, which isolated mass is on record?
A: 1.8 g

Strings that start with PEPTIDE1 are HELM notation: dots part the residues, brackets hold end groups and non-standard residues.
